# Screen size: about 360,000 compounds; about 10,000 (2.8%) were called active. Inconclusive means that the source gave no clear call. Such entries were picked first, then a sample of the others. The call rests on the fitted dose curve; in most records, active means well fitted inhibition curve with a large enough effect; inconclusive means small, poorly fitted or top-dose-only effect; inactive means flat fitted curve, though single readings scatter. Where the call is inconclusive, the potency comes from a doubtful curve fit.
# Chains of the proteins cited; added tags and fusions are not shown.
# UniProt P53350, whole entry, looked up: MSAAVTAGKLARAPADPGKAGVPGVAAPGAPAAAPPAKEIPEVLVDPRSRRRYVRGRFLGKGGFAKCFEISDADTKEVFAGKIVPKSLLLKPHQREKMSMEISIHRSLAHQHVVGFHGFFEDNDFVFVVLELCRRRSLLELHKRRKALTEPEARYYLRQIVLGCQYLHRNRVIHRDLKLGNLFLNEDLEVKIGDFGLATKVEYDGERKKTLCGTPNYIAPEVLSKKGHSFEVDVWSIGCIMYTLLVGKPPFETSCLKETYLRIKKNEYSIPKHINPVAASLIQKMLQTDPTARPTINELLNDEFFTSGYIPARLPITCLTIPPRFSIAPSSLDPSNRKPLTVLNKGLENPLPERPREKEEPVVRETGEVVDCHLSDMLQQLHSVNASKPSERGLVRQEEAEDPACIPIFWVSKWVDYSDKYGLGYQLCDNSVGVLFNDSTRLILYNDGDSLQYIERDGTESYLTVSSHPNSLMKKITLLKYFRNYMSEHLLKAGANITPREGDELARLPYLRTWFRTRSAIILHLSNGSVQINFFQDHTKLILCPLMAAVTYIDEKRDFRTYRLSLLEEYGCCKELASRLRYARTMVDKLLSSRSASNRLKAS
# Molecular target: Serine/threonine-protein kinase PLK1 (Homo sapiens) (UniProt P53350)
# Test: qHTS for Inhibitors of PLK1-PDB (polo-like kinase 1 - polo-box domain): Primary Screen; further: nearly all actives have a fitted effect of over 65% in size; on max response, negative = inhibition: series mostly up to about 57 µM
# Settings: Plk1 PBD binding of FITC phosphopeptide, fluorescence polarization
# On the % scale 0 is the no-effect control and ±100 the full control effect; potency means the concentration at half of the fitted maximal effect.
SMILES,"max response, negative = inhibition",Potency
CCn1nc(C(=O)OCC(=O)NCC(C)C)c2ccccc2c1=O,inactive: -4.27%,–
Cc1ccc(NC(=O)C2(c3ccccc3)CCOCC2)c([N+](=O)[O-])c1,–,"inconclusive: 26.7 µM [inhibitor, single point]"
CC(O)c1cccc(-c2ccc(CN3C[C@]4(CO)O[C@@H](CO)C[C@@H]4S3(=O)=O)cc2)c1 (stereo partly specified),–,active: 26.7 µM
CCOc1ccccc1-n1c(SCC(=O)Nc2ccccc2C(=O)O)nc2ccccc2c1=O,–,"inconclusive: 67 µM [inhibitor, partial curve]"
CCc1c(C)sc(NC(=O)C2CCCCC2C(=O)O)c1C(N)=O (stereo unspecified),–,"inconclusive: 0.0084 µM [inhibitor, full curve, poor fit]"
COc1cc2oc3cc(C#Cc4ccc(N)cc4)ccc3c(=O)c2cc1OC,inactive: -6.27%,–
CCCCC[C@@H](/C=C/C1C(=O)C=C[C@H]1C/C=C\CCCC(=O)O)OC(C)=O (stereo partly specified),–,"inconclusive: 59.7 µM [inhibitor, partial curve]"
CCN1C(C)=C(C)S/C1=C1\SC(=S)N(C2CCCCC2)C1=O,–,"inconclusive: 11.9 µM [inhibitor, partial curve]"
CCn1cc(C(=O)NC(=S)Nc2ccccc2[N+](=O)[O-])cn1,–,"inconclusive: 26.7 µM [inhibitor, single point]"
CCN1CSC(=S)N(Cc2ccc(OC)cc2)C1,inconclusive: -32.1% [inhibitor],–
CC(=O)COC(=O)C1CC(=O)N(c2ccc(C)c(C)c2)C1 (stereo unspecified),–,"inconclusive: 5.32 µM [inhibitor, single point]"
CCOc1ccc(-c2nnc(-c3ccncc3)o2)cc1,–,active: 26.7 µM
N=C1/C(=C\c2ccc(SCc3ccco3)o2)C(=O)N=C2SC=NN12,–,"inconclusive: 29.9 µM [inhibitor, single point]"
O=C(COC(=O)C1(c2ccccc2)CC1)N1CCN(c2ccc(F)cc2)CC1,–,"inconclusive: 29.9 µM [inhibitor, partial curve]"
CCc1oc(C(=O)O)cc1CN(CC)CC,inactive: -8.25%,–
CCCCN(C(=O)CSc1nc2ccccc2s1)c1c(N)n(CCCC)c(=O)[nH]c1=O,–,"inconclusive: 13.4 µM [inhibitor, partial curve]"
c1ccc(-n2nnnc2SCc2cn3ccccc3n2)cc1,–,"inconclusive: 26.7 µM [inhibitor, single point]"
COc1ccc(Nc2cc(C)c3c(O)cccc3n2)cc1,–,active: 26.7 µM
Cn1c(SCC(=O)c2cc(Cl)c(Cl)s2)nnc1-c1ccco1,–,active: 21.2 µM
COc1ccc2sc(SCCCS(=O)(=O)O)[n+](CCCS(=O)(=O)[O-])c2c1,inactive: -18.9%,–
Cc1ccc(C2CN=NC23CCc2ccccc2C3=O)cc1 (stereo unspecified),–,"inconclusive: 21.2 µM [inhibitor, single point]"
C#CCOCCOCCOCCNc1nc(N2CCN(C(=O)CCCCCCCCCCNC(=O)Cn3cc(CCCCCN)nn3)CC2)nc(N2CCN(C(=O)CCCCCCCCCCNC(=O)[C@@H](CCC(=O)O)n3cc(CCCCCN)nn3)CC2)n1,inactive: -1.97%,–
Cc1ccnc(NC(=O)CCC(=O)N(CC(=O)NCc2ccccc2)c2ccc3c(c2)OCO3)c1,–,active: 2.99 µM
COc1ccc(CNCc2ccc3c(c2)OCO3)cc1Br,–,"inconclusive: 37.7 µM [inhibitor, single point]"

SMILES,"max response, negative = inhibition",Potency
COc1cc(/C=C/C(=O)OCC(=O)Nc2sc3c(c2C#N)CCC(C)C3)ccc1OCC#N (stereo unspecified),–,"inconclusive: 18.9 µM [inhibitor, partial curve]"
COC(=O)c1ccccc1NC(=O)CSc1nnc(Cc2ccc(Cl)cc2)o1,–,"inconclusive: 29.9 µM [inhibitor, single point]"
COC(=O)N1C(=O)[C@@](c2ccccc2)(C(C)C)N1C(=O)OC,–,"inconclusive: 33.6 µM [inhibitor, single point]"
Cc1nn(C(C)C(=O)Nc2ccc3c(c2)OCO3)c(C)c1[N+](=O)[O-] (stereo unspecified),inactive: -4.01%,–
O=C(O)C1CCN(S(=O)(=O)/C=C/c2ccccc2)CC1,–,"inconclusive: 29.9 µM [inhibitor, single point]"
CCOC(=O)c1sc(NC(C)=O)nc1C,–,active: 26.7 µM
COC(=O)/C=C\C(=O)Nc1cccc([N+](=O)[O-])c1,–,active: 5.97 µM
C/C(=N\N=C1\NC(=O)C(Cc2ccccc2)S1)c1ccccc1 (stereo unspecified),–,active: 29.9 µM
Cc1cc(C)cc(NC(=O)CSc2ccc(-c3ccco3)nn2)c1,–,"inconclusive: 21.2 µM [inhibitor, partial curve]"
CC(=O)Nc1ccc(S(=O)(=O)Nc2ccccc2N2CCOCC2)cc1,inactive: -12.7%,–
CCN(CC)C(=O)Cn1c(=O)c2ccccc2n2c(=S)sc(-c3cccc(C)c3)c12,–,"inconclusive: 23.8 µM [inhibitor, partial curve]"
COc1cc(CCc2ccccc2)c(C(=O)O)c(O)c1C/C=C(/C)CCC=C(C)C,–,active: 23.8 µM
O=C(O)CSc1cc(C(=O)c2ccccc2O)cn2c(=O)c3c(-c4ccccc4)csc3nc12,–,"inconclusive: 26.7 µM [inhibitor, single point]"
O=C(COc1ccccc1F)Nc1ccc(N2CCOCC2)cc1N1CCOCC1,inactive: 3.76%,–
COC(=O)C1C(=O)N2CCCSC2=C(C#N)C1c1cccs1 (stereo unspecified),inactive: -2.28%,–
CN(C)Cc1nc2ccccc2c(=O)n1Cc1nc(-c2cccc([N+](=O)[O-])c2)cs1,–,"inconclusive: 15 µM [inhibitor, partial curve]"
Cc1ccccc1OCCCCN1CCCCC1,inactive: -6.77%,–
O=C(CO)N/N=C/c1c2ccccc2cc2ccccc12,–,"inconclusive: 29.9 µM [inhibitor, single point]"
C=CCn1c(C)cc(C(=O)COC(=O)c2ccc3c(c2)NC(=O)CS3)c1C,–,"inconclusive: 18.9 µM [inhibitor, partial curve]"
Cc1ccccc1CSCC1Nc2ccc(C(=O)NCCc3ccccc3)cc2NC1=O (stereo unspecified),–,"inconclusive: 21.2 µM [inhibitor, single point]"
CN=c1scc(-c2ccco2)n1/N=C/c1ccc(O)c(O)c1,–,"inconclusive: 16.8 µM [inhibitor, partial curve]"
Cc1c(OCc2nn[nH]n2)ccc2c(-c3ccccc3)cc(=O)oc12,inactive: -8.17%,–
O=[N+]([O-])c1ccccc1S(=O)(=O)Oc1ccc(C(=S)N2CCOCC2)cc1,–,active: 5.32 µM
Cc1ccc(-c2nc3ccc(C(=O)O)cc3nc2-c2ccc(C)cc2)cc1,–,active: 29.9 µM

SMILES,"max response, negative = inhibition",Potency
S=c1[nH]nc(COc2ccccc2)n1/N=C/C=C/c1ccco1,–,"inconclusive: 26.7 µM [inhibitor, partial curve]"
COc1ccc2ccccc2c1/C=N/Nc1cccc(C(=O)O)c1,–,"inconclusive: 23.8 µM [inhibitor, single point]"
FC(F)(F)COc1nc(N2CCOCC2)nc(N(c2ccccc2)c2ccccc2)n1,inactive: 1.4%,–
O=C(NCCCN1CCc2ccccc2C1)Nc1ccc(Br)cc1,–,"inconclusive: 29.9 µM [inhibitor, single point]"
COc1ccccc1S(=O)(=O)Cc1ccc(C(=O)NCc2ccccc2)o1,–,"inconclusive: 21.2 µM [inhibitor, partial curve]"
NC(=S)Cc1nc(-c2ccc(Cl)cc2)cs1,–,"inconclusive: 15 µM [inhibitor, partial curve]"
CCCC(C)c1nnc(NC(=O)C2CC(=O)N(CCc3ccc(F)cc3)C2)s1 (stereo unspecified),–,active: 5.97 µM
Oc1cccc(/C=N/N=C/c2cccc(O)c2O)c1O,inactive: 2.68%,–
Cc1ccc(NC(=O)c2noc3c2CCC3)cc1C,–,"inconclusive: 29.9 µM [inhibitor, single point]"
Nc1nc2ncc(C(=O)c3cc(F)ccc3O)cc2s1,inactive: 1.24%,–
O=C(CCSc1ccc(Cl)cc1)c1ccco1,–,"inconclusive: 11.9 µM [inhibitor, partial curve]"
COc1cccc(/C=C2\C(=O)N(c3cccc(C)c3)C(=O)c3ccccc32)c1,–,active: 2.67 µM
O=C(NCCO)C(=O)NCC1OCCCN1S(=O)(=O)c1cc(F)ccc1F (stereo unspecified),inactive: -1.36%,–
O=S(=O)(Nc1nc2ccccc2nc1Nc1ccc(N2CCOCC2)cc1)c1cc(Cl)ccc1Cl,–,active: 11.9 µM
O=C(CSc1ccsc1[N+](=O)[O-])Nc1cc(F)ccc1F,–,"inconclusive: 33.6 µM [inhibitor, partial curve]"
CCC(Sc1nc(-c2cccc(OC)c2)c(C#N)c(=O)[nH]1)C(=O)Nc1nnc(C(C)C)s1 (stereo unspecified),inconclusive: -30.2% [inhibitor],–
O=C(Oc1ccc(=O)n(-c2ccccc2)n1)c1ccccc1,–,"inconclusive: 37.7 µM [inhibitor, single point]"
COc1ccc2c(c1)CSC(c1ccccc1)C2=O (stereo unspecified),–,"inconclusive: 23.8 µM [inhibitor, single point]"
O=C1c2ccccc2C(O)(c2ccccc2)N1c1ccncc1 (stereo unspecified),–,"inconclusive: 21.2 µM [inhibitor, partial curve]"
CCC(C)(C)n1nnnc1C(c1ccc(OC)c(OC)c1)N1CCN(C(=O)c2ccco2)CC1 (stereo unspecified),–,"inconclusive: 23.8 µM [inhibitor, single point]"
Oc1[nH]c2ccccc2c1N=Nc1c(F)c(F)c(F)c(F)c1F,inconclusive: -31.1% [inhibitor],–
CCCC(=O)Nc1cc(S(=O)(=O)N(CC)CC)ccc1Cl,–,"inconclusive: 26.7 µM [inhibitor, single point]"
COc1ccc(N(CC(=O)Nc2ccc3c(c2)OCCO3)S(C)(=O)=O)c(OC)c1,–,"inconclusive: 29.9 µM [inhibitor, single point]"

# Record cards (already shown):
# `CCC(C)(C)n1nnnc1C(c1ccc(OC)c(OC)c1)N1CCN(C(=O)c2ccco2)CC1` (stereo unspecified) is listed as Potency: inconclusive: 23.8 µM [inhibitor, single point]
# `NC(=S)Cc1nc(-c2ccc(Cl)cc2)cs1` is listed as Potency: inconclusive: 15 µM [inhibitor, partial curve]
# `COc1cccc(/C=C2\C(=O)N(c3cccc(C)c3)C(=O)c3ccccc32)c1` is listed as Potency: active: 2.67 µM
# `COc1ccc2c(c1)CSC(c1ccccc1)C2=O` (stereo unspecified) is listed as Potency: inconclusive: 23.8 µM [inhibitor, single point]

# — PubChem BioAssay AID720504 (National Center for Advancing Translational Sciences (NCATS), 2013)
